Laboratory results reported in patent US20230210899A1.
Substitutions are numbered along the chain they refer to. Results are given in words; binding and its absence hold for the method and conditions named. Some results given as binding are weak or reduced against the parent protein; the word gives no strength. For some assays here: Sequences can lack the tags named with a protein. Each block holds one binder with its values, some of them ahead of it.

Tests used:
[1] = target: T1, human myelin oligodendrocyte glycoprotein (MOG), target used for phage panning and ELISA (human) (UniProt Q16653); assay: QC ELISA, purified scFv-myc-6xHis
T1 sequence (looked up): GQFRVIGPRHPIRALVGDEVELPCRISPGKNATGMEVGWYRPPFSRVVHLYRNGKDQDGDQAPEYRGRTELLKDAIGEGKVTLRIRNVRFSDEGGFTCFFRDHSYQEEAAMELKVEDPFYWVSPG

[2] = target: T1, human myelin oligodendrocyte glycoprotein (MOG), target used for phage panning and ELISA (human); assay: QC ELISA titration, seven concentrations, scFv induced at 16 C
[3] = target: T2, MOG-1 expressed on HEK293 cells (UniProt Q16653); assay: FITC-labelled scFv on MOG-1 expressing HEK293 cells, fluorescence microscopy (scFv-FITC / Cell Mask Red ratio)
T2 sequence (looked up): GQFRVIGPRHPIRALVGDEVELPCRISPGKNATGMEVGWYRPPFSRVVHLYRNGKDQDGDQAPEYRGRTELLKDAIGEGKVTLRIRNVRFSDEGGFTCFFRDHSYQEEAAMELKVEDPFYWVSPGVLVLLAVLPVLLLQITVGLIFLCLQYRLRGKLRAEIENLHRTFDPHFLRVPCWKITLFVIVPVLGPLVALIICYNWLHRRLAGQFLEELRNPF

[4] = target: T1, human myelin oligodendrocyte glycoprotein (MOG), target used for phage panning and ELISA (human); assay: monoclonal phage ELISA
[5] = target: T1, human myelin oligodendrocyte glycoprotein (MOG), target used for phage panning and ELISA (human); assay: soluble ELISA with cell lysates from 30 C and 37 C

B1: Clone 13 scFv-myc-6xHis (soluble scFv from pET-26b) (scFv)
scFv: MEVQLLESGGGLVQPGGSLRLSCAASGFTFSSYAMSWVRQAPGKGLEWVSSINSAGGSTYYADSVKGRFTISRDNSKNTLYLQMNSLRAEDTAVYYCAKNSAYFDYWGQGTLVTVSSGGGGSGGGGSGGGGSTDIQMTQSPSSLSASVGDRVTITCRASQSISSYLNWYQQKPGKAPKLLIYDASNLQSGVPSRFSGSGSGTDFTLTISSLQPEDFATYYCQQTDTYPTTFGQGTKVEIKEFEQKLISEEDLLEHHHHHH
binding [1]: binds
binding [2]: binds

B5: Clone 21 scFv-myc-6xHis (soluble scFv from pET-26b) (scFv)
scFv: MEVQLLESGGGLVQPGGSLRLSCAASGFTFSSYAMSWVRQAPGKGLEWVSSISYSGAYTAYADSVNGRFTISRDNSKNTLYLQMNSLRAEDTAVYYCAKSGTDFDYWGQGTLVTVSSGGGGSGGGGSGGGGSTDIQMTQSPSSLSASVGDRVTITCRASQSISSYLNWYQQKPGKAPKLLIYGASNLQSGVPSRFSGSGSGTDFTLTISSLQPEDFATYYCQQSNYDPSTFGQGTKVEIKEFEQKLISEEDLLEHHHHHH
binding [1]: binds
binding [2]: binds

B6: Clone 1 scFv (scFv)
scFv: MEVQLLESGGGLVQPGGSLRLSCAASGFTFSSYAMSWVRQAPGKGLEWVSSISDYGNTTAYADSVKGRFTISRDNSKNTLYLQMNSLRAEDTAVYYCAKNANYFDYWGQGTLVTVSSGGGGSGGGGSGGGGSTDIQMTQSPSSLSASVGDRVTITCRASQSISSYLNWYQQKPGKAPKLLIYDASSLQSGVPSRFSGSGSGTDFTLTISSLQPEDFATYYCQQTSTYPGTFGQGTKVEIK
binding [4]: binds
binding [5]: binds

B8: Clone 1 scFv-myc-6xHis (soluble scFv from pET-26b) (scFv)
scFv: MEVQLLESGGGLVQPGGSLRLSCAASGFTFSSYAMSWVRQAPGKGLEWVSSISDYGNTTAYADSVKGRFTISRDNSKNTLYLQMNSLRAEDTAVYYCAKNANYFDYWGQGTLVTVSSGGGGSGGGGSGGGGSTDIQMTQSPSSLSASVGDRVTITCRASQSISSYLNWYQQKPGKAPKLLIYDASSLQSGVPSRFSGSGSGTDFTLTISSLQPEDFATYYCQQTSTYPGTFGQGTKVEIKEFEQKLISEEDLLEHHHHHH
binding [1]: binds
binding [2]: binds

B9: Clone 3 scFv (scFv)
scFv: MEVQLLESGGGLVQPGGSLRLSCAASGFTFSSYAMSWVRQAPGKGLEWVSSISSYGSYTGYADSVKGRFTISRDNSKNTLYLQMNSLRAEDTAVYYCAKNGYAFDYWGQGTLVTVSSGGGGSGGGGSGGGGSTDIQMTQSPSSLSASVGDRVTITCRASQSISSYLNWYQQKPGKAPKLLIYGASALQSGVPSRFSGSGSGTDFTLTISSLQPEDFATYYCQQNDASPNTFGQGTKVEIK
binding [4]: binds
binding [5]: binds

B11: Clone 17 scFv (scFv)
scFv: MEVQLLESGGGLVQPGGSLRLSCAASGFTFSSYAMSWVRQAPGKGLEWVSSISTSGSYTAYADSVKGRFTISRDNSKNTLYLQMNSLRAEDTAVYYCAKGGYTFDYWGQGTLVTVSSGGGGSGGGGSGGGGSTDIQMTQSPSSLSASVGDRVTITCRASQSISSYLNWYQQKPGKAPKLLIYSASTLQSGVPSRFSGSGSGTDFTLTISSLQPEDFATYYCQQSDGNPTTFGQGTKVEIK
binding [4]: binds
binding [5]: binds

B12: Clone 6 scFv-myc-6xHis (soluble scFv from pET-26b) (scFv)
scFv: MEVQLLESGGGLVQPGGSLRLSCAASGFTFSSYAMSWVRQAPGKGLEWVSTISTYGDYTTYADSVKGRFTISRDNSKNTLYLQMNSLRAEDTAVYYCAKGSYTFDYWGQGTLVTVSSGGGGSGGGGSGGGGSTDIQMTQSPSSLSASVGDRVTITCRASQSISSYLNWYQQKPGKAPKLLIYSASYLQSGVPSRFSGSGSGTDFTLTISSLQPEDFATYYCQQSNATPSTFGQGTKVEIKEFEQKLISEEDLLEHHHHHH
binding [1]: binds
binding [2]: binds
binding [3]: binds

Next, values leading:

binding [1]: binds
binding [2]: binds
B2: Clone 10 scFv-myc-6xHis (soluble scFv from pET-26b) (scFv)
scFv: MEVQLLESGGGLVQPGGSLRLSCAASGFTFSSYAMSWVRQAPGKGLEWVSGITNYGYTTYYADSVKGRFTISRDNSKNTLYLQMNSLRAEDTAVYYCAKSSYSFDYWGQGTLVTVSSGGGGSGGGGSGGGGSTDIQMTQSPSSLSASVGDRVTITCRASQSISSYLNWYQQKPGKAPKLLIYAASALQSGVPSRFSGSGSGTDFTLTISSLQPEDFATYYCQQSAYYPDTFGQGTKVEIKEFEQKLISEEDLLEHHHHHH

binding [1]: binds
binding [2]: binds
binding [3]: binds
B3: Clone 3 scFv-myc-6xHis (soluble scFv from pET-26b) (scFv)
scFv: MEVQLLESGGGLVQPGGSLRLSCAASGFTFSSYAMSWVRQAPGKGLEWVSSISSYGSYTGYADSVKGRFTISRDNSKNTLYLQMNSLRAEDTAVYYCAKNGYAFDYWGQGTLVTVSSGGGGSGGGGSGGGGSTDIQMTQSPSSLSASVGDRVTITCRASQSISSYLNWYQQKPGKAPKLLIYGASALQSGVPSRFSGSGSGTDFTLTISSLQPEDFATYYCQQNDASPNTFGQGTKVEIKEFEQKLISEEDLLEHHHHHH

binding [3]: binds
B4: scFv 4 (pelB-VH-Linker-VL-6His), FITC-labelled (scFv)
scFv: MAEVKLHESGAGLVKPGASVEISCKATGYTFSSFWIEWVKQRPGHGLEWIGEILPGRGRTNYNEKFKGKATFTAETSSNTAYMQLSSLTSEDSAVYYCATGNTMVNMPYWGQGTTVTVSSGGGGSGGGGSGGGGSDIELTQSPSSLAVSAGEKVTMSCKSSQSLLNSGNQKNYLAWYQQKPGLPPKLLIYGASTRESGVPDRFTGSGSGTDFTLTISSVQAEDLAVYYCQNDHSYPLTFGAGTKLEIKRLEHHHHHH
modifications: FITC-labelled (2.52 FITC molecules were labeled for each scFv antibody fragment)

binding [4]: binds
binding [5]: binds
B7: Clone 10 scFv (scFv)
scFv: MEVQLLESGGGLVQPGGSLRLSCAASGFTFSSYAMSWVRQAPGKGLEWVSGITNYGYTTYYADSVKGRFTISRDNSKNTLYLQMNSLRAEDTAVYYCAKSSYSFDYWGQGTLVTVSSGGGGSGGGGSGGGGSTDIQMTQSPSSLSASVGDRVTITCRASQSISSYLNWYQQKPGKAPKLLIYAASALQSGVPSRFSGSGSGTDFTLTISSLQPEDFATYYCQQSAYYPDTFGQGTKVEIK

binding [4]: binds
binding [5]: binds
B10: Clone 6 scFv (scFv)
scFv: B11 scFv with S51T, S55Y, S57D, A60T, G101S, T186Y, D225N, G226A, N227T, T229S

binding [1]: binds
binding [2]: binds
binding [3]: binds
B13: Clone 17 scFv-myc-6xHis (soluble scFv from pET-26b) (scFv)
scFv: B12 scFv with T51S, Y55S, D57S, T60A, S101G, Y186T, N225D, A226G, T227N, S229T

binding [4]: binds
binding [5]: binds
B14: Clone 13 scFv (scFv)
scFv: MEVQLLESGGGLVQPGGSLRLSCAASGFTFSSYAMSWVRQAPGKGLEWVSSINSAGGSTYYADSVKGRFTISRDNSKNTLYLQMNSLRAEDTAVYYCAKNSAYFDYWGQGTLVTVSSGGGGSGGGGSGGGGSTDIQMTQSPSSLSASVGDRVTITCRASQSISSYLNWYQQKPGKAPKLLIYDASNLQSGVPSRFSGSGSGTDFTLTISSLQPEDFATYYCQQTDTYPTTFGQGTKVEIK

binding [4]: binds
binding [5]: binds
B15: Clone 21 scFv (scFv)
scFv: MEVQLLESGGGLVQPGGSLRLSCAASGFTFSSYAMSWVRQAPGKGLEWVSSISYSGAYTAYADSVNGRFTISRDNSKNTLYLQMNSLRAEDTAVYYCAKSGTDFDYWGQGTLVTVSSGGGGSGGGGSGGGGSTDIQMTQSPSSLSASVGDRVTITCRASQSISSYLNWYQQKPGKAPKLLIYGASNLQSGVPSRFSGSGSGTDFTLTISSLQPEDFATYYCQQSNYDPSTFGQGTKVEIK
